Results are given in words; binding and its absence hold for the method and conditions named. Binding seen in cells or lysates may run through a third protein. Some binding calls cover weakened binding; strength is not graded here.
Biological target: T1, ID3 protein (human (endogenous in TPC cells)) (UniProt Q02535)
T1 sequence: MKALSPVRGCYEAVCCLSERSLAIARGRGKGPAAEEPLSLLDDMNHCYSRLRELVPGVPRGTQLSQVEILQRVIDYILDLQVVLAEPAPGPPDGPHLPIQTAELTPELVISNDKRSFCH
Experiment: co-IP; lysate of TPC cells in IP lysis buffer without SDS; precipitated with 1 ug ID3 antibody or IgG at 4 °C overnight, Protein A agarose 4 °C 2 h; immunoblotting; endogenous proteins

binding: binds
B1: E47 protein (protein, UniProt P15923-2 1-651)
chain: MNQPQRMAPVGTDKELSDLLDFSMMFPLPVTNGKGRPASLAGAQFGGSGLEDRPSSGSWGSGDQSSSSFDPSRTFSEGTHFTESHSSLSSSTFLGPGLGGKSGERGAYASFGRDAGVGGLTQAGFLSGELALNSPGPLSPSGMKGTSQYYPSYSGSSRRRAADGSLDTQPKKVRKVPPGLPSSVYPPSSGEDYGRDATAYPSAKTPSSTYPAPFYVADGSLHPSAELWSPPGQAGFGPMLGGGSSPLPLPPGSGPVGSSGSSSTFGGLHQHERMGYQLHGAEVNGGLPSASSFSSAPGATYGGVSSHTPPVSGADSLLGSRGTTAGSSGDALGKALASIYSPDHSSNNFSSSPSTPVGSPQGLAGTSQWPRAGAPGALSPSYDGGLHGLQSKIEDHLDEAIHVLRSHAVGTAGDMHTLLPGHGALASGFTGPMSLGGRHAGLVGGSHPEDGLAGSTSLMHNHAALPSQPGTLPDLSRPPDSYSGLGRAGATAAASEIKREEKEDEENTSAADHSEEEKKELKAPRARTSSTDEVLSLEEKDLRDRERRMANNARERVRVRDINEAFRELGRMCQMHLKSDKAQTKLLILQQAVQVILGLEQQVRERNLNPKAACLKRREEEKVSGVVGDPQMVLSAPHPGLSEAHNPAGHM

From article PMC8405699
